# Experimental data from PubChem BioAssay AID1688 (National Center for Advancing Translational Sciences (NCATS), 2009).
# The whole screen tested about 220,000 compounds, of which about 2,400 (1.1%) were called active. The inconclusive results got no clear call from the source; some entries with a clear call stand among them for comparison. Calls follow the shape of the dose curve; as a rule, active = well fitted inhibition curve with a large enough effect; inconclusive = small, poorly fitted or top-dose-only effect, or effect the other way; inactive = no such curve, though single readings can be large or run the other way. Where the call is inconclusive, the potency comes from a doubtful curve fit.
# Experiment: qHTS Multiplex Assay to Identify Dual Action Probes in a Cell Model of Huntington: Aggregate Formation (GFP); also: nearly all actives have a fitted effect of over 60% in size
# Conditions: PC12 HttQ103-GFP aggregates, Acumen cytometry, 40 h; activity change, negative = inhibition: at 46.1 µM (top of the series) unless noted
# How it was run: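 Huntingtin Q103 exon 1–GFP aggregates in induced PC12 cells (100 nM tebufenozide) were quantified by cytometry from lysates, with compounds dosed in titration.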
# % is scaled to controls: 0 for no effect and ±100 for the full control effect; potency is read from the fitted curve at half-maximal effect.
SMILES,Potency,"activity change, negative = inhibition"
CCOc1ccc(NC(=S)N(CCCN2CCOCC2)Cc2cn(C)c3ccccc23)cc1,"inconclusive: 3.98 µM [inhibitor, partial curve]",–
COc1ccc(-c2noc(CCC(=O)NCCCN3CCN(c4ccccc4F)CC3)n2)cc1,"inconclusive: 35.5 µM [inhibitor, single point]",–
Cc1ccc(CSc2ccc3nnc(-c4cccnc4)n3n2)cc1,"inconclusive: 35.5 µM [activator, single point]",–
O=C(Nc1cccc2nsnc12)c1cccnc1Cl,"inconclusive: 35.5 µM [inhibitor, single point]",–
Cn1c(=O)cc(OCCCC(=O)NCc2ccc(F)cc2Cl)c2ccccc21,"inconclusive: 35.5 µM [activator, single point]",–
CC(C(=O)c1ccc(-c2ccccc2)cc1)[n+]1ccccc1 (stereo not given),"inconclusive: 12.6 µM [inhibitor, single point]",–
CC1=NN(c2ccccc2)C(=O)/C1=C\c1ccc(Br)s1,active: 0.708 µM,–
COC(=O)c1sc(NC(=S)NC(=O)c2ccccc2)nc1C,–,inactive: 3.09%
CCC(=O)N1CCCc2ccccc21,–,inactive: -7.24% [at 9.22 µM]
CN(C)CCCN(C(=O)/C=C/c1cccs1)c1nc2ccc(F)cc2s1,"inconclusive: 35.5 µM [inhibitor, single point]",–
O=C(O)c1cc(NCc2c(F)cccc2Cl)ccc1N1CCOCC1,"inconclusive: 10 µM [inhibitor, partial curve]",–
O=C(N/N=C/c1cccc(F)c1)c1cc(-c2ccco2)nc2ccccc12,"inconclusive: 15.8 µM [inhibitor, single point]",–
COC(=O)c1[nH]c2c(c1C)C(=O)CC(c1cccs1)C2 (stereo not given),"inconclusive: 2.82 µM [inhibitor, single point]",–
CC1CCCC(C)N1C(=O)CSCc1ccc(Cl)cc1 (stereo not given),–,inactive: 28.2%
Cc1nn(Cc2ccc(Cl)c(Cl)c2)c(C)c1NC(=O)c1cc(CC(C)C)on1,active: 10 µM,–
COc1ccc(NC(=O)N(Cc2ccc(C)cc2)Cc2cccnc2)c(OC)c1,"inconclusive: 35.5 µM [activator, single point]",–
COc1ccc2ccccc2c1CNC(=O)CC1C(=O)NCCN1CC(C)(C)C (stereo not given),"inconclusive: 1.26 µM [inhibitor, single point]",–
Cc1noc(NC(=O)c2ccccc2C(F)(F)F)c1C#N,–,inactive: -3.52% [at 9.22 µM]
CCNc1ccc(C(=O)O)cc1N,"inconclusive: 31.6 µM [inhibitor, single point]",–
Clc1cccc2sc(N3CCCCC3)nc12,–,inactive: -18%
O=C(Nc1ccccc1Cc1ccccc1)c1ccccc1NS(=O)(=O)c1ccc(Cl)s1,active: 2.51 µM,–
CCc1cc(=O)oc2cc(C)cc(O)c12,"inconclusive: 20 µM [inhibitor, single point]",–
O=C(NCc1cccnc1)c1cnc2n(c1=O)CCS2,"inconclusive: 1 µM [activator, single point]",–
CC(C)N(C(=O)COC(=O)[C@@H]1CC(O)CN1S(=O)(=O)c1ccc(C(C)(C)C)cc1)C(C)C (stereo not given in full),–,inactive: 11.8%

# Some values from above:
# In Potency, `O=C(Nc1cccc2nsnc12)c1cccnc1Cl` is listed with inconclusive: 35.5 µM [inhibitor, single point]
# In activity change, negative = inhibition, `CC(C)N(C(=O)COC(=O)[C@@H]1CC(O)CN1S(=O)(=O)c1ccc(C(C)(C)C)cc1)C(C)C` (stereo not given in full) is listed with inactive: 11.8%
# In Potency, `O=C(N/N=C/c1cccc(F)c1)c1cc(-c2ccco2)nc2ccccc12` is listed with inconclusive: 15.8 µM [inhibitor, single point]
# In activity change, negative = inhibition, `COC(=O)c1sc(NC(=S)NC(=O)c2ccccc2)nc1C` is listed with inactive: 3.09%

# Additional structures follow.

SMILES,Potency,"activity change, negative = inhibition"
Cc1cc(C(=O)OCC(=O)c2ccc(Cl)c([N+](=O)[O-])c2)c2cccc(C)c2n1,–,inactive: 24.8%
COc1ccc(S(=O)(=O)N2CCCCC2)cc1NC(=O)c1cccnc1SC,"inconclusive: 3.55 µM [inhibitor, partial curve]",–
COCCn1c(=S)[nH]c2cc(C(=O)N3CCN(Cc4ccc5c(c4)OCO5)CC3)ccc2c1=O,"inconclusive: 11.2 µM [inhibitor, partial curve]",–
CC(OC(=O)c1oc2ccccc2c1COc1ccccc1)C(=O)NC(N)=O (stereo not given),–,inactive: -14.5%
CC(=O)Nc1ccc(OCC(O)CNC2CCCC2)cc1 (stereo not given),"inconclusive: 12.6 µM [inhibitor, single point]",–
CC(C)CC(=O)NC(=S)Nc1ccc(N2CCOCC2)c(Cl)c1,"inconclusive: 35.5 µM [inhibitor, single point]",–
COc1ccc(CCn2c(-c3cc([N+](=O)[O-])cc([N+](=O)[O-])c3)nc3nc4ccccc4nc32)cc1OC,"inconclusive: 2 µM [activator, full curve, poor fit]",–
COc1ccc(Cn2cc3c(-c4ccc(F)cc4)nnc-3c3cc(OC)c(OC)cc32)cc1,"inconclusive: 35.5 µM [inhibitor, single point]",–
CC(=O)Nc1ccc(S(=O)(=O)Nc2c(C)nn(-c3ccccc3)c2C)cc1,"inconclusive: 15.8 µM [inhibitor, single point]",–
Cc1ccc(-c2ccccc2)n1-c1ccc(C(=O)O)cc1,"inconclusive: 22.4 µM [inhibitor, single point]",–
Cc1ccc(C(=O)N2C(=S)C(c3ccc(F)cc3)=NC23CCN(C)CC3)cc1,"inconclusive: 5.62 µM [inhibitor, single point]",–
CCCCCCCCCCCCCCCC[n+]1cccc(C(=O)N(CC)CC)c1,"inconclusive: 5.62 µM [inhibitor, single point]",–
Cc1ccccc1Oc1nnc(-c2cccs2)c2ccccc12,active: 3.55 µM,–
Nc1nc(-c2ccccc2)cc(N2CCCCC2)n1,"inconclusive: 14.1 µM [activator, single point]",–
C(=C\c1ccccc1)/CSc1nnc(-c2ccccn2)n1Cc1ccco1,"inconclusive: 17.8 µM [activator, single point]",–
CCOC(=O)/C(=C/c1ccc(Cl)cc1)NC(=O)c1ccco1,–,inactive: 24.4%
COc1ccc(-c2noc(CSc3nc(N)c(-c4ccccc4)c(=O)[nH]3)n2)cc1,"inconclusive: 35.5 µM [inhibitor, single point]",–
Cc1scc(-c2n[nH]c(=S)n2Cc2ccccc2)c1C,–,inactive: 4.31%
Cc1cc(-c2ccccc2)cc(-c2ccccc2)[n+]1C,"inconclusive: 8.91 µM [inhibitor, partial curve]",–
COc1ccc(/C=C2/C(=O)N(CC3CCCO3)C(=S)N2C)c(OC)c1 (stereo not given),–,inactive: 18.4%
CC(C)N(CC(=O)Nc1ccc(Cl)cc1C(F)(F)F)C(=O)CCl,active: 14.1 µM,–
Cc1ccc(-c2cc(C(=O)N/N=C\c3cnn(C)c3C)c3ccccc3n2)cc1C,"inconclusive: 31.6 µM [inhibitor, partial curve]",–
COc1ccc(OCCn2c(NC(=O)c3ccco3)nc3ccccc32)cc1,active: 10 µM,–
CCOc1ccc(-n2c(=O)[nH]cc(C(=O)Nc3ccc(OC)c(OC)c3)c2=O)cc1,"inconclusive: 35.5 µM [activator, single point]",–

SMILES,Potency,"activity change, negative = inhibition"
Cc1cc2nc[nH]c2cc1[N+](=O)[O-],–,inactive: -7.91%
Cc1noc(C)c1CSc1nc2sc(C)c(C)c2c(=O)n1-c1ccccc1,–,inactive: -1.76%
Cc1ccc(-n2c(SCC(=O)NCC3CCCO3)nc3c(c2=O)SCC3)cc1 (stereo not given),–,inactive: 5.05%
COc1cccc(-c2nnc(SCc3cccnc3)o2)c1,"inconclusive: 0.282 µM [inhibitor, full curve, poor fit]",–
O=C(Nn1cc(C(=O)Nc2ccc(F)cc2F)c2ccccc2c1=O)c1cnccn1,"inconclusive: 3.16 µM [inhibitor, full curve]",–
Cc1ccc(C)c(NC(=O)C2C(c3ccccc3)C2(Cl)Cl)c1 (stereo not given),"inconclusive: 35.5 µM [inhibitor, single point]",–
CCOc1ccc(Br)cc1S(=O)(=O)Nc1cccc(S(=O)(=O)N(C)c2ccccc2)c1,"inconclusive: 17.8 µM [inhibitor, single point]",–
O=C(/C=C/c1ccc(OC2CSC2)cc1)c1ccccc1,–,inactive: 3.24%
Cc1oc(-c2cccs2)nc1CN1CCC(CO)(CCOc2ccccc2)CC1,–,inactive: -2.25% [at 9.22 µM]
COc1ccc(C(=O)N[C@H](C(=O)NCc2ccco2)C(C)C)cc1,"inconclusive: 0.794 µM [inhibitor, single point]",–
COc1cc(/C=C2/SC(=S)NC2=O)ccc1OS(=O)(=O)c1ccc(C)cc1,"inconclusive: 35.5 µM [inhibitor, single point]",–
O=C(C1CCCN(Cc2cccnc2)C1)N1CCCCC1 (stereo not given),"inconclusive: 10 µM [inhibitor, single point]",–
CCc1cc(-c2n[nH]c(C)c2Oc2ccc(C(C)C)cc2)c(O)cc1O,–,inactive: -16.5%
CCOC(=O)C1=Nc2ccccc2C1=[N+]=[N-],"inconclusive: 35.5 µM [activator, single point]",–
CCn1cc([N+](=O)[O-])c(C(=O)Nc2nc(-c3ccc(C)c(C)c3)c(C)s2)n1,"inconclusive: 3.16 µM [activator, full curve]",–
Cc1ccc(-n2c(O)c(C=NC3CCS(=O)(=O)C3)c3ccccc3c2=O)cc1C (stereo not given),"inconclusive: 0.562 µM [inhibitor, full curve, poor fit]",–
Cc1ccc(N(C(C)C(=O)Nc2ccc3c(c2)OCO3)S(C)(=O)=O)cc1 (stereo not given),–,inactive: 5.95%
CCCCc1ccc(NC(=S)N2CCN(c3ncccn3)CC2)cc1,"inconclusive: 0.891 µM [inhibitor, partial curve]",–
CC(C)c1ccc(NC(=O)C(=O)c2cn(CC(=O)N3CCCCC3)c3ccccc23)cc1,"inconclusive: 10 µM [activator, partial curve, poor fit]",–
Cc1ccc(-c2nn3c(C)nnc3c3ccccc23)cc1S(=O)(=O)NCc1ccco1,"inconclusive: 3.55 µM [activator, partial curve]",–
COC(=O)C(NC(C)=O)(Nc1nc2c(s1)CCCC2)C(F)(F)F (stereo not given),"inconclusive: 35.5 µM [inhibitor, single point]",–
CCCOc1ccc(N)cc1N,"inconclusive: 35.5 µM [inhibitor, single point]",–
